Article doi:10.1101/2021.04.13.439701
Results are given in words; binding and its absence hold for the method and conditions named. Binding seen in cells or lysates may run through a third protein. Some results given as binding are weak or reduced against the parent protein; the word gives no strength.

Protein sequences, listed by entry. Tags and fused reporters are not part of them.
UniProt O95817: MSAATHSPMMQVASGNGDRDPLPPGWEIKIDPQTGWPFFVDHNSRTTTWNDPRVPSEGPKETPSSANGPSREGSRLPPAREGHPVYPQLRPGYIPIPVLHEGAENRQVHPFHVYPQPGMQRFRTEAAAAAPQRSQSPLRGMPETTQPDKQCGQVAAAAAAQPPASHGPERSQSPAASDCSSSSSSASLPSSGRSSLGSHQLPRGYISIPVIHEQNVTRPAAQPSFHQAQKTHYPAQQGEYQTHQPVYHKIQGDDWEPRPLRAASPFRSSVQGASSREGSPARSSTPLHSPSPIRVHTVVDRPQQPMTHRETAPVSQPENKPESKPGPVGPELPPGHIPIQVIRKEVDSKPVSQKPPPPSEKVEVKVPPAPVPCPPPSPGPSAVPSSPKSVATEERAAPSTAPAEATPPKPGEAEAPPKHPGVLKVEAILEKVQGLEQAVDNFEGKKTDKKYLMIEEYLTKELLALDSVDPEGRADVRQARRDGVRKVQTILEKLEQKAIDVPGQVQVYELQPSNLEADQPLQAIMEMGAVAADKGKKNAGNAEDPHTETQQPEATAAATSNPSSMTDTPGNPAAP
UniProt Q9BQI3: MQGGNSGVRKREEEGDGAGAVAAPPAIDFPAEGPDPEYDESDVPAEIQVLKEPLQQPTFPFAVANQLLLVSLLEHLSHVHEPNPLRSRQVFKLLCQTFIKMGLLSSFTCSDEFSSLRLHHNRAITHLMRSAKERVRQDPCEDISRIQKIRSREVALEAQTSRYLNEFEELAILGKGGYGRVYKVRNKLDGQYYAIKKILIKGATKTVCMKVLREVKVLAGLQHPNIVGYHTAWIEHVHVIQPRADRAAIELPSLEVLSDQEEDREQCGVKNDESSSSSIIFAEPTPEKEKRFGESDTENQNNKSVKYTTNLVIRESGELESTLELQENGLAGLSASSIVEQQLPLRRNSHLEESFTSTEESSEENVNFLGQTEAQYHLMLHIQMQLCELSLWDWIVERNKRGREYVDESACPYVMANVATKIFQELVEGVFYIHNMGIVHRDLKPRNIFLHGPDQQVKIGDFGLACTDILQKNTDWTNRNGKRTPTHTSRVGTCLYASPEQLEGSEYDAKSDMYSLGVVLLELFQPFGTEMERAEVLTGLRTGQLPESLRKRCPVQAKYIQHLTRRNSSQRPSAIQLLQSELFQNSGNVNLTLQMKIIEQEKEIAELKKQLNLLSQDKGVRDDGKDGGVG

Target: N-terminally His-tagged Bag3 Full length (UniProt O95817)
Experiment: pull-down

For “HRI (EIF2AK1), heme-responsive eIF2α kinase (from UniProt Q9BQI3 1-630) (enzyme)”, the binding was “binds”.
